Results as given in patent US20030138800.

Tested on: N.BstNBI nicking endonuclease
Assay: enzyme reaction in vitro
Conditions: purified recombinant protein, protein details: NEB

| Sequence | activity on this sequence (5'-amino (hexyl-amine, immobilized on PEI-coated tip), immobilized template, product m/z 1246 detected) | activity on this sequence (nicked product A2 detected by mass spectrometry, no product without TOP1, 60 C) |
| --- | --- | --- |
| CCTACGACTGGAACAGACTCACCTACGACTGGA (double strand) [Example 3 immobilized T2 duplex] | active | – |
| TTCCAGTCGTAGGTGAGTCGATGTTCCAGTCGTAGGT (double strand) [H2 duplex (Example 1, A2-extended T2)] | – | active |

The exact form of at least one protein or probe is not confirmed.
